PubChem BioAssay AID743454 | Peter MacCallum Cancer Centre – 2014

Aim: 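Knock-downs lowering viability or raising caspase 3/7 activity in vorinostat-treated resistant cells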 (primary screen)
Cells: human HCT116-VR colon cancer cells, selected for vorinostat resistance
Reagents: siRNA pool against human genes, 40 nM siRNA pool
Duration: vorinostat for 24 h, read-out about 72 h after transfection
Treatment: vorinostat at 2.5 µM final
Measured: 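Cell viability by CellTiter-Fluor and caspase 3/7 activity by luminescence, each scaled to mock wells per plate, duplicates averaged, then robust z-scored over all plates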
Scale: viability robust z-score: higher = more viable cells than screen typical; caspase robust z-score: higher = more caspase 3/7 activity than screen typical
Hit rule: 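a knock-down is a hit when classed RV1 or RV2 for lowered viability, or CA1 or CA2 for caspase activation; those lethal without drug were dropped; hits were retested singly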
The whole screen tested about 18,000 reagents; below is a random part of them. Over the whole deposit, 450 (2.5%) are marked active. 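Single biological run; no consistent viability z cut-off exists, so the class columns, not z-scores, define the calls.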 Entries without a mark were called inactive.

| Target gene | viability hit class | caspase hit class | viability robust z-score | caspase robust z-score |
| --- | --- | --- | --- | --- |
| NUP35 (GeneID 129401) | no change | no change | -0.19 | 0.19 |
| KAZN (GeneID 23254) | no change | no change | 0.65 | 4.03 |
| GCG (GeneID 2641) | no change | no change | 0.04 | 1.08 |
| SYT13 (GeneID 57586) | no change | no change | 0.18 | 1.52 |
| BRINP1 (GeneID 1620) | no change | no change | 0.84 | -0.61 |
| STT3A (GeneID 3703) | no change | no change | 0.18 | -0.73 |
| OR1F1 (GeneID 4992) | no change | no change | -1.21 | 0.02 |
| SPRR2A (GeneID 6700) | no change | no change | -1.26 | -0.31 |
| TXNDC16 (GeneID 57544) | no change | no change | 1.04 | -0.44 |
| GPC4 (GeneID 2239) | no change | no change | -0.8 | 2.41 |
| PIGP (GeneID 51227) | no change | no change | 0.01 | 1.33 |
| ZNF624 (GeneID 57547) | no change | no change | -0.04 | 0.4 |
| SOSTDC1 (GeneID 25928) | no change | no change | 0.05 | 0.11 |
| PHF6 (GeneID 84295) | no change | no change | 0.9 | 0.17 |
| CHP1 (GeneID 11261) | no change | no change | 0.53 | -0.26 |
| SMAD2 (GeneID 4087) | no change | no change | -0.82 | 1.36 |
| MCM3AP (GeneID 8888) | no change | no change | -2.28 | 4.94 |
| METTL21A (GeneID 151194) | no change | no change | 1.25 | -0.24 |
| RAB3IL1 (GeneID 5866) | no change | no change | 0.93 | 0.77 |
| LCE3D (GeneID 84648) | no change | no change | -1.08 | 0.38 |
| MEIS3 (GeneID 56917) | no change | no change | 0.64 | 2.58 |
| KIF1B (GeneID 23095) | no change | no change | -0.25 | -0.95 |
| SKOR2 (GeneID 652991) | no change | no change | -0.91 | 3.12 |
| POLR1C (GeneID 9533) | no change | no change | -0.21 | -0.46 |
| STS (GeneID 412) | RV2 (reduced viability) (active) | no change | -3.27 | -1.18 |
| MEIOC (GeneID 284071) | no change | no change | 1 | -0.5 |
| MAPK13 (GeneID 5603) | no change | no change | -0.04 | -0.22 |
| SELENOH (GeneID 280636) | no change | no change | 0.08 | -1.02 |
| AKTIP (GeneID 64400) | no change | no change | 0.46 | -0.1 |
| LAGE3 (GeneID 8270) | no change | no change | 0.96 | -0.24 |
| H2AX (GeneID 3014) | no change | no change | -1.99 | 4.47 |
| PTMS (GeneID 5763) | no change | no change | 1 | 2.76 |
| CCDC83 (GeneID 220047) | no change | no change | -0.41 | 0.88 |
| NPS (GeneID 594857) | no change | no change | 0.31 | 0.58 |
| AMZ2 (GeneID 51321) | no change | no change | 0.73 | -0.6 |
| COX7B2 (GeneID 170712) | no change | no change | 1.12 | -0.42 |
| CIMIP7 (GeneID 646498) | no change | no change | -2.2 | 1.7 |
| LRRC24 (GeneID 441381) | no change | no change | -1.17 | 1.95 |
| PDHX (GeneID 8050) | no change | no change | -0.71 | 0.74 |
| TRPV1 (GeneID 7442) | no change | no change | 0.64 | 0.11 |
| EIF3B (GeneID 8662) | no change | no change | -2.76 | -1.15 |
| VSIG8 (GeneID 391123) | no change | no change | 0.2 | -0.99 |
| SEC13 (GeneID 6396) | no change | no change | -1.52 | 0.85 |
| OR5K1 (GeneID 26339) | no change | no change | -0.33 | 2.51 |
| KDR (GeneID 3791) | no change | no change | 0.2 | -0.48 |
| EID3 (GeneID 493861) | no change | no change | 0.4 | -0.41 |
| TBK1 (GeneID 29110) | no change | no change | 0.09 | 0.58 |
| WBP1 (GeneID 23559) | no change | no change | -0.48 | 2.08 |
| RPP30 (GeneID 10556) | no change | no change | -1.08 | 3.93 |
| LCE5A (GeneID 254910) | no change | no change | 0.2 | 1.31 |
| PURB (GeneID 5814) | no change | no change | 0.16 | 0.15 |
| PLEKHG1 (GeneID 57480) | no change | no change | -0.38 | 1.26 |
| LRRC42 (GeneID 115353) | no change | no change | -0.08 | 0.86 |
| NFAM1 (GeneID 150372) | no change | no change | 1.69 | -0.14 |
| PLA2G7 (GeneID 7941) | no change | no change | -0.52 | -0.5 |
| PPP1R15A (GeneID 23645) | no change | no change | 0.78 | 0.03 |
| UCHL3 (GeneID 7347) | no change | no change | 0.01 | 2.36 |

9 entries from above, limited to “caspase hit class”.
OR1F1 (GeneID 4992): no change
SPRR2A (GeneID 6700): no change
TXNDC16 (GeneID 57544): no change
GPC4 (GeneID 2239): no change
PIGP (GeneID 51227): no change
ZNF624 (GeneID 57547): no change
SOSTDC1 (GeneID 25928): no change
PHF6 (GeneID 84295): no change
CHP1 (GeneID 11261): no change
